Measurements from paper PMC12690290.

Amino acid sequences for entries named in this document (tags omitted). Residues count along the entry.
UniProt P02787, residues 20-698: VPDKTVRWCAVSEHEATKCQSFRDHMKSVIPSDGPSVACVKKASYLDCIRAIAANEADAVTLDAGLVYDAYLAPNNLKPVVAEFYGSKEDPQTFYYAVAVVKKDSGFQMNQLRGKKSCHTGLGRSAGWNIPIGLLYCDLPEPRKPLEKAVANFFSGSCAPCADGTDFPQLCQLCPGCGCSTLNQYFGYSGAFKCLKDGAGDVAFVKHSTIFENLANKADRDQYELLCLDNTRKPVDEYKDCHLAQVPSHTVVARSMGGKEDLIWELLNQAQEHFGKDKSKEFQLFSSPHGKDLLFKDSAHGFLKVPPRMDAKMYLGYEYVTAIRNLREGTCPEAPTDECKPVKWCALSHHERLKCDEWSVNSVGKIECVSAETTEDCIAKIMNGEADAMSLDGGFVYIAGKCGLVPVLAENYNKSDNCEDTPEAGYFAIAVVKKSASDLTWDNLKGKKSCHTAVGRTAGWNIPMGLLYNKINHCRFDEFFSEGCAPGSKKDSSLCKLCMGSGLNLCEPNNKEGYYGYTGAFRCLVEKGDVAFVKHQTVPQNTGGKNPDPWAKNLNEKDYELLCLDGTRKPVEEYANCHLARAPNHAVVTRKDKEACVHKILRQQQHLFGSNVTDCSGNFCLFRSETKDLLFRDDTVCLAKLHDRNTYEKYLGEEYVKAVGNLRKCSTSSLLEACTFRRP
UniProt Q7L5N1: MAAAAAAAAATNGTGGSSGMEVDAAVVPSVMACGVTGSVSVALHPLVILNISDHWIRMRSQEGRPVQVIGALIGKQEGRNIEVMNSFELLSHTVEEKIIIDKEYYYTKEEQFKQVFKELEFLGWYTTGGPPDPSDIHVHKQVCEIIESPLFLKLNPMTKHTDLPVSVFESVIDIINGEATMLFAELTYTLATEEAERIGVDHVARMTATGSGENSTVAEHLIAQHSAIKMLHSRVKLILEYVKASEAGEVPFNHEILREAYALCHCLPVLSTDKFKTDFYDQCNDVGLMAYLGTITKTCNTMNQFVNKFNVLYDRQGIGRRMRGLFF
UniProt Q96Q89: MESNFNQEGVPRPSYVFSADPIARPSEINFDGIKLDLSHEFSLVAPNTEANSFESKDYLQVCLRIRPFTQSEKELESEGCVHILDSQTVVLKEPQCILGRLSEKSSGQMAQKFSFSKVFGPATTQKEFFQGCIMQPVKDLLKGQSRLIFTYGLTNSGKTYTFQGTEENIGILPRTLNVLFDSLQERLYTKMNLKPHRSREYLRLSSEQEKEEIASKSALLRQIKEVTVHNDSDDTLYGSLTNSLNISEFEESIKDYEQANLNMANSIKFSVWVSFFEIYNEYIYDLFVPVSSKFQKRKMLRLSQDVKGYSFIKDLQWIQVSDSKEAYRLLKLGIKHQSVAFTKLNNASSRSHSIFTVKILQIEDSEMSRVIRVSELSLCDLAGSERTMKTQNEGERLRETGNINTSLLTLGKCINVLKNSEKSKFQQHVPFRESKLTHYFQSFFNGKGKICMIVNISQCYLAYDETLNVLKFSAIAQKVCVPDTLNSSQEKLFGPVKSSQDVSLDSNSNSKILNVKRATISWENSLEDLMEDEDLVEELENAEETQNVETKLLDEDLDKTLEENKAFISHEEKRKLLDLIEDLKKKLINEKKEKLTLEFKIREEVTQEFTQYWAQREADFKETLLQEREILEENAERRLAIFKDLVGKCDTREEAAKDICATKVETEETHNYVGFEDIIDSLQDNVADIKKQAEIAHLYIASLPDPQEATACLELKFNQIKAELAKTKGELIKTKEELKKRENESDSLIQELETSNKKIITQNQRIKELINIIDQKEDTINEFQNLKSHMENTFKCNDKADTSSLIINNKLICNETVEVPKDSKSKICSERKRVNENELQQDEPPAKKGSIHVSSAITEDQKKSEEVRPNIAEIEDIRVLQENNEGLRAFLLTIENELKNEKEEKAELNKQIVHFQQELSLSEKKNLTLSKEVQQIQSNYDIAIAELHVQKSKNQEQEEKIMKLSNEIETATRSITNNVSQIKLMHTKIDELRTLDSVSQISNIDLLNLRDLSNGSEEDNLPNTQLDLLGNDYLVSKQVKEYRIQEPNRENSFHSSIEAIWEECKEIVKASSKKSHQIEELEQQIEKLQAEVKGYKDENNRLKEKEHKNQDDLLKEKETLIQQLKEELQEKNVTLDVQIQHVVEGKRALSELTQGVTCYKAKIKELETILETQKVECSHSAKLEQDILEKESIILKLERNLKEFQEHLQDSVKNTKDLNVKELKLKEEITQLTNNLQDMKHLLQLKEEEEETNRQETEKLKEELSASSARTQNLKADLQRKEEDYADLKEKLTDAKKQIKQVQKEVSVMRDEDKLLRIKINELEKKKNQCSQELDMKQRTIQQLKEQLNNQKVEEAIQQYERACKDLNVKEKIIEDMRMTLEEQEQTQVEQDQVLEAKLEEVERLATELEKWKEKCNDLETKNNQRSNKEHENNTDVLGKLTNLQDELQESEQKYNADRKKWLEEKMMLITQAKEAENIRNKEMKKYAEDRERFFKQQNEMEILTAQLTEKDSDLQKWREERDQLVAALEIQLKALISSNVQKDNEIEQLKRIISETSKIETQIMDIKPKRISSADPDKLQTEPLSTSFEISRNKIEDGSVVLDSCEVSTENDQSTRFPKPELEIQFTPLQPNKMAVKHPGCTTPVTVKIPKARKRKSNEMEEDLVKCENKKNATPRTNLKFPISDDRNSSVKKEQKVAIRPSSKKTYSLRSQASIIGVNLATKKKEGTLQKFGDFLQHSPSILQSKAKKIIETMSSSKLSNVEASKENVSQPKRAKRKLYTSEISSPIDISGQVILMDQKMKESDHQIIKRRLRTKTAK
UniProt P02788, residues 20-710: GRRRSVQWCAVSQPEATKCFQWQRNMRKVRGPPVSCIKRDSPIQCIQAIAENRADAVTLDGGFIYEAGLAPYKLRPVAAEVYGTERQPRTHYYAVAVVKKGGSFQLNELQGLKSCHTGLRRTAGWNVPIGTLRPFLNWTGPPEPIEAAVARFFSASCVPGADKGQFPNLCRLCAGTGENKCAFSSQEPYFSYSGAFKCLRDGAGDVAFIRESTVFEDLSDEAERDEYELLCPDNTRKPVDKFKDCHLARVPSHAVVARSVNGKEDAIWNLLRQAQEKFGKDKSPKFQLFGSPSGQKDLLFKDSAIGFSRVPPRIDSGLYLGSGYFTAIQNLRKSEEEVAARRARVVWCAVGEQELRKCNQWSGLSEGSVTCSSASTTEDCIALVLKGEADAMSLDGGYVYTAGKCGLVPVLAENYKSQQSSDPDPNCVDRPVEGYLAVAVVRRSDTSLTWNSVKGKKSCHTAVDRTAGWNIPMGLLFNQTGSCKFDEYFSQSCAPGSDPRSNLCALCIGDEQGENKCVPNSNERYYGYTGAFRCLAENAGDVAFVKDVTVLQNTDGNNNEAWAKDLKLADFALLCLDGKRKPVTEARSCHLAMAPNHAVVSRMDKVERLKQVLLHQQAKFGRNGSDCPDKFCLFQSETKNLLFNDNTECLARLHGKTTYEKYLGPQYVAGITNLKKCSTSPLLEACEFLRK
UniProt P30405, residues 30-207: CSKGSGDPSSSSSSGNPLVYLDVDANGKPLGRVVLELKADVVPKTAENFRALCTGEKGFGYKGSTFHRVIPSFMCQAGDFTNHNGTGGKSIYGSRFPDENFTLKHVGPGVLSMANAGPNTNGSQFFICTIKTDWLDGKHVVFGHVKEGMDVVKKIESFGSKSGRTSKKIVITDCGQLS

T1: mesoheme–rabbit hemopexin (1:1 heme–HPX complex) (rabbit) (UniProt P20058)
T1 sequence: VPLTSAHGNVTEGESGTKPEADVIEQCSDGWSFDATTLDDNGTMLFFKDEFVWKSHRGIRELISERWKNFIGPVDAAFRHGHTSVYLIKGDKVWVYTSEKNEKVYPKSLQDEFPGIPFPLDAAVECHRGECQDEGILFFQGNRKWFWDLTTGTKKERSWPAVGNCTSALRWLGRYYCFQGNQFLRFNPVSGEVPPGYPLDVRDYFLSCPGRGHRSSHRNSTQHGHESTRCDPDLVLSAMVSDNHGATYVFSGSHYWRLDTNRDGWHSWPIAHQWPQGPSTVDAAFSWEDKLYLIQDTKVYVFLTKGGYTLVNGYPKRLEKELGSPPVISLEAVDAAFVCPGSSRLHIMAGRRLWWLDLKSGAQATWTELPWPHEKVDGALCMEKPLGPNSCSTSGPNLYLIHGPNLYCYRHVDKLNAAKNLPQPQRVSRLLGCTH


Key:
[1] = molecular target: holo-human transferrin (human) (UniProt P02787); experiment: affinity purification with mass spectrometry; heme–HPX or holo-human Tf Affi-Gel 15 against ovalbumin Affi-Gel 15; HepG2 whole-cell extracts (0.5% Triton X-100, HEPES pH 7.4, 150 mM NaCl); 2-fold or greater over the negative control counted as specifically bound; only the target purified
[2] = molecular target: T1, mesoheme–rabbit hemopexin (1:1 heme–HPX complex) (rabbit); experiment: affinity purification with mass spectrometry; proto-heme–human HPX, mesoheme–rabbit HPX or holo-human Tf Affi-Gel 15; detergent extracts of primary human hepatocytes; proteins found on underivatized, mouse IgG or ovalbumin resins filtered out; only the target purified

| binding [1] | binding [2] | Molecule |
| --- | --- | --- |
| binds |  | COP9 signalosome complex subunit (from UniProt Q7L5N1 1-327) |
| binds |  | Kinesin family member (from UniProt Q96Q89 1-1820) |
| binds |  | Lactoferrin (from UniProt P02788 20-710) |
| binds |  | Peptidyl-prolyl cis-trans isomerase F (from UniProt P30405 30-207) (enzyme) |
|  | binds | Kallistatin (protein, UniProt P29622 21-427) QLHVEHDGESCSNSSHQQILETGEGSPSLKIAPANADFAFRFYYLIASETPGKNIFFSPLSISAAYAMLSLGACSHSRSQILEGLGFNLTELSESDVHRGFQHLLHTLNLPGHGLETRVGSALFLSHNLKFLAKFLNDTMAVYEAKLFHTNFYDTVGTIQLINDHVKKETRGKIVDLVSELKKDVLMVLVNYIYFKALWEKPFISSRTTPKDFYVDENTTVRVPMMLQDQEHHWYLHDRYLPCSVLRMDYKGDATVFFILPNQGKMREIEEVLTPEMLMRWNNLLRKRNFYKKLELHLPKFSISGSYVLDQILPRLGFTDLFSKWADLSGITKQQKLEASKSFHKATLDVDEAGTEAAAATSFAIKFFSAQTNRHILRFNRPFLVVIFSTSTQSVLFLGKVVDPTKP |
|  | binds | Dopamine β-hydroxylase (enzyme, UniProt P09172 1-617) MPALSRWASLPGPSMREAAFMYSTAVAIFLVILVAALQGSAPRESPLPYHIPLDPEGSLELSWNVSYTQEAIHFQLLVRRLKAGVLFGMSDRGELENADLVVLWTDGDTAYFADAWSDQKGQIHLDPQQDYQLLQVQRTPEGLTLLFKRPFGTCDPKDYLIEDGTVHLVYGILEEPFRSLEAINGSGLQMGLQRVQLLKPNIPEPELPSDACTMEVQAPNIQIPSQETTYWCYIKELPKGFSRHHIIKYEPIVTKGNEALVHHMEVFQCAPEMDSVPHFSGPCDSKMKPDRLNYCRHVLAAWALGAKAFYYPEEAGLAFGGPGSSRYLRLEVHYHNPLVIEGRNDSSGIRLYYTAKLRRFNAGIMELGLVYTPVMAIPPRETAFILTGYCTDKCTQLALPPSGIHIFASQLHTHLTGRKVVTVLVRDGREWEIVNQDNHYSPHFQEIRMLKKVVSVHPGDVLITSCTYNTEDRELATVGGFGILEEMCVNYVHYYPQTQLELCKSAVDAGFLQKYFHLINRFNNEDVCTCPQASVSQQFTSVPWNSFNRDVLKALYSFAPISMHCNKSSAVRFQGEWNLQPLPKVISTLEEPTPQCPTSQGRSPAGPTVVSIGGGKG |
|  | binds | Alpha-1-antichymotrypsin (protein, UniProt P01011 24-423) HPNSPLDEENLTQENQDRGTHVDLGLASANVDFAFSLYKQLVLKAPDKNVIFSPLSISTALAFLSLGAHNTTLTEILKGLKFNLTETSEAEIHQSFQHLLRTLNQSSDELQLSMGNAMFVKEQLSLLDRFTEDAKRLYGSEAFATDFQDSAAAKKLINDYVKNGTRGKITDLIKDLDSQTMMVLVNYIFFKAKWEMPFDPQDTHQSRFYLSKKKWVMVPMMSLHHLTIPYFRDEELSCTVVELKYTGNASALFILPDQDKMEEVEAMLLPETLKRWRDSLEFREIGELYLPKFSISRDYNLNDILLQLGIEEAFTSKADLSGITGARNLAVSQVVHKAVLDVFEEGTEASAATAVKITLLSALVETRTIVRFNRPFLMIIVPTDTQNIFFMSKVTNPKQA |
|  | binds | Selenoprotein P (protein, UniProt P49908 20-381) ESQDQSSLCKQPPAWSIRDQDPMLNSNGSVTVVALLQASUYLCILQASKLEDLRVKLKKEGYSNISYIVVNHQGISSRLKYTHLKNKVSEHIPVYQQEENQTDVWTLLNGSKDDFLIYDRCGRLVYHLGLPFSFLTFPYVEEAIKIAYCEKKCGNCSLTTLKDEDFCKRVSLATVDKTVETPSPHYHHEHHHNHGHQHLGSSELSENQQPGAPNAPTHPAPPGLHHHHKHKGQHRQGHPENRDMPASEDLQDLQKKLCRKRCINQLLCKLPTDSELAPRSUCCHCRHLIFEKTGSAITUQCKENLPSLCSUQGLRAEENITESCQURLPPAAUQISQQLIPTEASASURUKNQAKKUEUPSN |
|  | binds | Cystatin E/M (protein, UniProt Q15828 29-149) RPQERMVGELRDLSPDDPQVQKAAQAAVASYNMGSNSIYYFRDTHIIKAQSQLVAGIKYFLTMEMGSTDCRKTRVTGDHVDLTTCPLAAGAQQEKLRCDFEVLVVPWQNSSQLLKHNCVQM |
|  | binds | C1 inhibitor (protein, UniProt P05155 23-500) NPNATSSSSQDPESLQDRGEGKVATTVISKMLFVEPILEVSSLPTTNSTTNSATKITANTTDEPTTQPTTEPTTQPTIQPTQPTTQLPTDSPTQPTTGSFCPGPVTLCSDLESHSTEAVLGDALVDFSLKLYHAFSAMKKVETNMAFSPFSIASLLTQVLLGAGENTKTNLESILSYPKDFTCVHQALKGFTTKGVTSVSQIFHSPDLAIRDTFVNASRTLYSSSPRVLSNNSDANLELINTWVAKNTNNKISRLLDSLPSDTRLVLLNAIYLSAKWKTTFDPKKTRMEPFHFKNSVIKVPMMNSKKYPVAHFIDQTLKAKVGQLQLSHNLSLVILVPQNLKHRLEDMEQALSPSVFKAIMEKLEMSKFQPTLLTLPRIKVTTSQDMLSIMEKLEFFDFSYDLNLCGLTEDPDLQVSAMQHQTVLELTETGVEAAAASAISVARTLLVFEVQQPFLFVLWDQQHKFPVFMGRVYDPRA |
|  | binds | Amine oxidase, copper containing 3 (enzyme, UniProt Q16853 1-763) MNQKTILVLLILAVITIFALVCVLLVGRGGDGGEPSQLPHCPSVSPSAQPWTHPGQSQLFADLSREELTAVMRFLTQRLGPGLVDAAQARPSDNCVFSVELQLPPKAAALAHLDRGSPPPAREALAIVFFGRQPQPNVSELVVGPLPHPSYMRDVTVERHGGPLPYHRRPVLFQEYLDIDQMIFNRELPQASGLLHHCCFYKHRGRNLVTMTTAPRGLQSGDRATWFGLYYNISGAGFFLHHVGLELLVNHKALDPARWTIQKVFYQGRYYDSLAQLEAQFEAGLVNVVLIPDNGTGGSWSLKSPVPPGPAPPLQFYPQGPRFSVQGSRVASSLWTFSFGLGAFSGPRIFDVRFQGERLVYEISLQEALAIYGGNSPAAMTTRYVDGGFGMGKYTTPLTRGVDCPYLATYVDWHFLLESQAPKTIRDAFCVFEQNQGLPLRRHHSDLYSHYFGGLAETVLVVRSMSTLLNYDYVWDTVFHPSGAIEIRFYATGYISSAFLFGATGKYGNQVSEHTLGTVHTHSAHFKVDLDVAGLENWVWAEDMVFVPMAVPWSPEHQLQRLQVTRKLLEMEEQAAFLVGSATPRYLYLASNHSNKWGHPRGYRIQMLSFAGEPLPQNSSMARGFSWERYQLAVTQRKEEEPSSSSVFNQNDPWAPTVDFSDFINNETIAGKDLVAWVTAGFLHIPHAEDIPNTVTVGNGVGFFLRPYNFFDEDPSFYSADSIYFRGDQDAGACEVNPLACLPQAAACAPDLPAFSHGGFSHN |
|  | binds | Glycosylphosphatidylinositol specific phospholipase D1 (enzyme, UniProt P80108 24-840) CGLSTHVEIGHRALEFLQLHNGRVNYRELLLEHQDAYQAGIVFPDCFYPSICKGGKFHDVSESTHWTPFLNASVHYIRENYPLPWEKDTEKLVAFLFGITSHMAADVSWHSLGLEQGFLRTMGAIDFHGSYSEAHSAGDFGGDVLSQFEFNFNYLARRWYVPVKDLLGIYEKLYGRKVITENVIVDCSHIQFLEMYGEMLAVSKLYPTYSTKSPFLVEQFQEYFLGGLDDMAFWSTNIYHLTSFMLENGTSDCNLPENPLFIACGGQQNHTQGSKMQKNDFHRNLTTSLTESVDRNINYTERGVFFSVNSWTPDSMSFIYKALERNIRTMFIGGSQLSQKHVSSPLASYFLSFPYARLGWAMTSADLNQDGHGDLVVGAPGYSRPGHIHIGRVYLIYGNDLGLPPVDLDLDKEAHRILEGFQPSGRFGSALAVLDFNVDGVPDLAVGAPSVGSEQLTYKGAVYVYFGSKQGGMSSSPNITISCQDIYCNLGWTLLAADVNGDSEPDLVIGSPFAPGGGKQKGIVAAFYSGPSLSDKEKLNVEAANWTVRGEEDFSWFGYSLHGVTVDNRTLLLVGSPTWKNASRLGHLLHIRDEKKSLGRVYGYFPPNGQSWFTISGDKAMGKLGTSLSSGHVLMNGTLKQVLLVGAPTYDDVSKVAFLTVTLHQGGATRMYALTSDAQPLLLSTFSGDRRFSRFGGVLHLSDLDDDGLDEIIMAAPLRIADVTSGLIGGEDGRVYVYNGKETTLGDMTGKCKSWITPCPEEKAQYVLISPEASSRFGSSLITVRSKAKNQVVIAAGRSSLGARLSGALHVYSLGSD |

These are yes or no findings as the source states them, for the method shown. Binding seen in cells or lysates may run through a third protein. Here binding means that the protein was enriched with, or labelled near, the bait; the list need not be complete.
